Laboratory results reported in the supplement of paper PMC3334620.
In all, about 33,000 sequences were measured (“E-score (-0.5 to 0.5)”: median about -0.0059, highest 2% from about 0.26 on). This is one part of the list.

Target: T1, Cin5 (UniProt P40917)
T1 sequence: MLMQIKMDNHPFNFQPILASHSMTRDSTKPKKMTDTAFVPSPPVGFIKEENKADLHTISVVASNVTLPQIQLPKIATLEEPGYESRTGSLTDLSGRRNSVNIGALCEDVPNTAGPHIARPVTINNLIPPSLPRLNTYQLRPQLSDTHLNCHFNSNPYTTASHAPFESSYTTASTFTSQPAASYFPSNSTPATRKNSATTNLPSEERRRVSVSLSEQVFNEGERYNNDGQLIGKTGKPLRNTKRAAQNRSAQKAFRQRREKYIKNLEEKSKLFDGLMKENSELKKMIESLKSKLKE
Assay: PBM E-score (8-mer binding enrichment) (E-score (-0.5 to 0.5)); higher = stronger / more preferred TF binding
Settings: protein concentration: 100 nM; construct: GST-full length
Outline: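 For each ungapped eight-base word taken together with its reverse complement, the Universal PBM Analysis Suite assigned an E-score. Binding data came from GST-tagged yeast transcription factors, applied at about 100-200 nM, on universal all-10-mer Agilent arrays made double-stranded by primer extension. Fluorescent anti-GST marked bound protein, and scans were normalised with masliner.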

Sequence | PBM E-score
GGATCACA | 0.152
CGCTCATA | -0.0885
AGATACCC | -0.0307
AAGCCCGG | -0.0671
GACGAATC | 0.0147
AGTAACAG | 0.133
ACATGAGC | -0.0462
GAACGATA | 0.0931
CAGACCCC | -0.377
ACCTCTGG | -0.25
AAACCCTA | 0.0927
CTCGAAAA | -0.114
CAAAAACG | 0.0594
CGGGGGCA | -0.351
CAACCAAG | 0.0048
CCTTAGTA | -0.0198
CAACGACA | 0.141
AACTCCGC | -0.0915
CAGACCTA | -0.107
CGGAGCAC | -0.121
CGCAAGGC | 0.0896
ATCCTACA | -0.136

Sequence | PBM E-score
ATCATGCG | -0.0193
CGCGGGTC | -0.025
ACGGGGAG | -0.159
CGTAACAG | 0.159
ATTCAAAG | 0.04
GGCTAAAC | -0.00393
TGGTTGAA | -0.0193
GATAAATA | 0.245
CACCGAAG | 0.0977
ATGATCCC | 0.022
AACGTCAC | -0.0218
GGATTATA | 0.131
GGGCGCAA | -0.116
AAATTCAC | 0.11
AGTTCGAG | 0.0936
GTGCGCCA | -0.16
GTAAAAAA | 0.0416
TGGCTAAA | -0.00971
CTCTGCAA | 0.0751
ATTCCTAA | 0.0773
TGTCATAA | 0.111
GCGACTCC | -0.33

Sequence | PBM E-score
GATCAAAA | -0.00848
CGACGTTC | -0.268
AAACGAAG | 0.0268
AGACAGAT | 0.277
AGCAATGC | 0.113
AGTCGATA | 0.0851
AGATGGGA | -0.0624
ATAAGGCC | -0.0777
AACTCTTG | -0.0911
AGTCTGGG | -0.284
AACACGGC | -0.0562
ACCGGTTG | -0.117
CGTCTCTC | -0.019
ACTCTTCA | 0.0764
ACCAGTCT | -0.11
CACTAATG | 0.0736
ACGTCTGG | -0.0539
GTGACGCA | -0.115
AAGTATAC | 0.153
ACTTGAAC | -0.00791
ACTCCCCC | -0.389
ATCTTAGA | 0.121

Sequence | PBM E-score
ATTATGTA | 0.42
CATAATGG | 0.0936
GTCGAATA | 0.0797
GATATGAA | 0.0853
ATACGCTA | 0.0784
AGACGGAG | 0.0487
CCGTTACC | 0.0192
CACAGCGA | 0.0258
CGCAGATA | 0.0282
ATCTCGAC | 0.0547
GAATGGCA | 0.00941
CAGGAGGA | -0.315
GACTACAA | -0.0163
ACGAGCGA | 0.0185
TAACGAAA | 0.246
AGGCAGTA | -0.15
GGCAACAC | -0.0192
GAACATAC | 0.119
ACAAAAAC | 0.107
TCCGTACA | 0.0845

Four entries drawn at random from the list so far, as already listed:
Sequence | PBM E-score
ATTATGTA | 0.42
CATAATGG | 0.0936
ACGAGCGA | 0.0185
CCGTTACC | 0.0192
